Source: paper PMC11684626
Results are given in words; binding and its absence hold for the method and conditions named. In cells and extracts the contact can be indirect. Some entries that bind do so weakly or less than the wild type. Sequences can lack the tags named with a protein.

What was measured:
[1] = target: T1, HA-PEG10 gag-pol (Homo sapiens) (UniProt Q86TG7); assay: co-IP; co-immunoprecipitation of murine or human FLAG-RTL8 with HA-tagged human or murine PEG10; precipitating antibody, cell line and cross-linking not stated for this experiment
T1 sequence: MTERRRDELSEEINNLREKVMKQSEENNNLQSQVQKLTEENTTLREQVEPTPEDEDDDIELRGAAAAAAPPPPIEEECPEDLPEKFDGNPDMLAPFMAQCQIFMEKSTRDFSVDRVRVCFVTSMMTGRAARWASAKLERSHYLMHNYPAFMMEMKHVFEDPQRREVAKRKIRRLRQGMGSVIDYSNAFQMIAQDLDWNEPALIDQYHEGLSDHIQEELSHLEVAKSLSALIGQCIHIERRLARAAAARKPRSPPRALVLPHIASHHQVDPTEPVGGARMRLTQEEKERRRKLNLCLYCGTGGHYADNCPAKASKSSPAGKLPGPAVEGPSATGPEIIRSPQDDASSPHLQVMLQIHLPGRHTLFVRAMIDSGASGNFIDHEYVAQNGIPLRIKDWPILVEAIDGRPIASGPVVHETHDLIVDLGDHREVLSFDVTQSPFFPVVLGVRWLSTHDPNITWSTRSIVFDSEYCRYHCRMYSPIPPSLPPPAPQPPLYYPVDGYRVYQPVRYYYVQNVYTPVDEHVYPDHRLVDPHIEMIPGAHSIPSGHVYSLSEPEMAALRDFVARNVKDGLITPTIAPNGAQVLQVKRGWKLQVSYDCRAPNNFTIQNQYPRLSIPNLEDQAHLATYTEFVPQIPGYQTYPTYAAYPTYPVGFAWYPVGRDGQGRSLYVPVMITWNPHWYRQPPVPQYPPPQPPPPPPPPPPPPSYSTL

[2] = target: T2, murine HA-tagged Peg10 (Mus musculus) (UniProt Q7TN75); assay: as above
T2 sequence: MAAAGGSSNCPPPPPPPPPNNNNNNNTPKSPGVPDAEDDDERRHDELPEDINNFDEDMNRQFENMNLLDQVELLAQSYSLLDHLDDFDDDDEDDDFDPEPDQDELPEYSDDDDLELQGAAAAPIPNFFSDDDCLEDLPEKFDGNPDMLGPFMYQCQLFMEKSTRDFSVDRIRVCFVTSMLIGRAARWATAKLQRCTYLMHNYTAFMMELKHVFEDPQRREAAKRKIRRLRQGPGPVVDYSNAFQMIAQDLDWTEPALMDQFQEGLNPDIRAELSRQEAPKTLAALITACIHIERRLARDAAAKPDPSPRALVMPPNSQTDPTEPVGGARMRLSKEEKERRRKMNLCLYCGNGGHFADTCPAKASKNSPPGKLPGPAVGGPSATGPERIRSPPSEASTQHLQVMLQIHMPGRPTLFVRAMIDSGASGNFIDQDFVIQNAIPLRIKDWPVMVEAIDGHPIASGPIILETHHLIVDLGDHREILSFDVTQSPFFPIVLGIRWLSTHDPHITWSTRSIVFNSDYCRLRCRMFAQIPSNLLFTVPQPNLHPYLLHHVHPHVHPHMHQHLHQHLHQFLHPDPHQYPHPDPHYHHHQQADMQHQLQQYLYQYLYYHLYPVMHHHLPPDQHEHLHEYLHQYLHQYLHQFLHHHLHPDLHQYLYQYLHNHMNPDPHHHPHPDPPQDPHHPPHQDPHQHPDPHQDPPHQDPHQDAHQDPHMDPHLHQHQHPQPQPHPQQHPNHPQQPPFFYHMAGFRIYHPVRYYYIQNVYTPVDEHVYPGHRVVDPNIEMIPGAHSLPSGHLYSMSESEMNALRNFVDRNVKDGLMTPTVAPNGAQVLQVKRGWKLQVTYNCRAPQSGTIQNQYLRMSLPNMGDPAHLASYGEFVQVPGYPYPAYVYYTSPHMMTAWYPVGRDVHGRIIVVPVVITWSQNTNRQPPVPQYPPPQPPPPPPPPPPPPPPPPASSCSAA

- binding [1]: binds
- binding [2]: binds
B1: FLAG-MmRtl8b (protein, UniProt Q9D1F0 1-113)
chain: MEGQGKVKRPKAYMLRHNRRRRRRNPIPFPELFDGEMDKLPEFIVQTGSYMLVDDRTFDTDELKVTFLITRLKGRALQWVIPYIKIDSPLLNDYNGFLNEMKRVFGWEEDEDF
